## Primary screen of a compound library

Amino acid sequences for entries named in this document (tags omitted). Residues count along the entry.
UniProt Q8IDJ8, 1-583: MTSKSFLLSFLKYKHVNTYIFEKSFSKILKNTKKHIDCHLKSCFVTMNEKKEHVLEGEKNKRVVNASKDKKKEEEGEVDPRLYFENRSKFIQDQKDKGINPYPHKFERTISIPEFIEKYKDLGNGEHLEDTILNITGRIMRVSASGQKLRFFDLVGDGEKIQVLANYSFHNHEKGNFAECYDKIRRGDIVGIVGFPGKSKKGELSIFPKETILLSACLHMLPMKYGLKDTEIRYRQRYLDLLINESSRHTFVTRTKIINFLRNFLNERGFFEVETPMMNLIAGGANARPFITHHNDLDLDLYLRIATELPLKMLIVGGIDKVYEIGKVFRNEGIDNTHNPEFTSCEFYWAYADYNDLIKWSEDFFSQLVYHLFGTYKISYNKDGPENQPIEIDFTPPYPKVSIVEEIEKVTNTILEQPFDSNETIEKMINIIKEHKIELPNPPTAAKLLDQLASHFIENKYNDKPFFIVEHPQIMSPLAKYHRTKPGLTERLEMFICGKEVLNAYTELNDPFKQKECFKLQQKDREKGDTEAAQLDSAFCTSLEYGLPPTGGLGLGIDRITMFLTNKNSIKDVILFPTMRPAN
UniProt P9WFT3, whole entry: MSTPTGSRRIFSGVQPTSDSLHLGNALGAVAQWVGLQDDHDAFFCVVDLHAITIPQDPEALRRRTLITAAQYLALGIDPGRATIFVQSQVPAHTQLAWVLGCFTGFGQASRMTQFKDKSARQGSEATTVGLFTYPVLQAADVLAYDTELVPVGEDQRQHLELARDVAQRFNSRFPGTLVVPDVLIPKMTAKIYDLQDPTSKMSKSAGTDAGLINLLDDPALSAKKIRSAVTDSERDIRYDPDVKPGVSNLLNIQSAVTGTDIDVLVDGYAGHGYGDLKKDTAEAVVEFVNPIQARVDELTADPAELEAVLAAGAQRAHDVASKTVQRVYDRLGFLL

From ChEMBL document CHEMBL3988442, “University of Dundee, Small-Polar-MMV Screening Library” (2021).

PfKRS1: 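Lysine-tRNA ligase, Plasmodium falciparum 3D7 (UniProt Q8IDJ8). Enzyme assay of the cytosolic lysyl-tRNA synthetase in 384-well plates, read by luminescence. Compounds at 30 µM. Direction is inferred from only a few compounds that gave an IC50; most scored high, so higher reads as stronger inhibition. About 69,000 compounds were tested under these conditions; 0.071% (about 49) showed 50% or more at least once.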
MtTrpRS: 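Enzyme assay of tryptophanyl-tRNA synthetase; the read-out is not stated. Target: Tryptophan-tRNA ligase, Mycobacterium tuberculosis (UniProt P9WFT3). Tested at 10 µM. Higher most likely means stronger inhibition; the record gives no direction and few retests gave an IC50. Size under these conditions: about 65,000 compounds, about 64 of them at 50% or above in at least one test.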

Results are given as percent effect.
The controls that fix the scale are not given in the record; negative values are as filed.
Compounds were drawn at random from those tested, without regard to their results.
A dash means the value is not listed here; it may have been measured.

SMILES | PfKRS1 | MtTrpRS
CCc1ccc(OCC(O)CN2CCN(CC)CC2)cc1 (stereo unspecified) | -2.262 | 4.639
CC1(C)CN(C(=O)c2cc(F)cc3[nH]cnc23)CCS1 | 4.438 | -2.412
CC(=O)c1c(N(C)C)ccnc1C(F)(F)F | 5.841 | -6.838
c1cnc2ccc(C[C@@H]3CC[C@H](CN4CCCOCC4)O3)cc2c1 | 2.573 | -2.563
O=C(NCCNc1ncccn1)c1ccc(OCc2ccccc2)nc1 | 2.169 | -1.144
O=C(CCCn1cncn1)NC1(c2cccc(Br)c2)CC1 | 5.096 | 5.011
COc1ccccc1C1(CNc2snc(Cl)c2C#N)CCOCC1 | 7.565 | -4.876
c1ccc(-c2noc(CN3CCc4c(ncn4C4CC4)C3)n2)nc1 | 2.913 | -0.1875
CCN(CC)CC(=O)NCCc1csc(N2CCCC2)n1 | -4.138 | -5.151
CCS(=O)(=O)CCN1CCCC1c1noc(C2CC2)n1 (stereo unspecified) | -1.292 | 0.07868
CC(C)[C@@H]1CN(C(=O)C2(c3ccccc3)CC2)C[C@H]1C(=O)O | -1.84 | -1.56
O=C(NCC(F)(F)F)c1coc(COc2cccc(F)c2)n1 | -2.952 | 14.53
CCNC(=O)CN(CC)C(=O)Cc1csc(C(C)C)n1 | 0.7545 | -2.785
N#Cc1ccccc1OCCN1CCCC1Cn1cncn1 (stereo unspecified) | -0.8963 | -4.237
CC(NS(=O)(=O)N(C)C)c1cccc(-n2cccn2)c1 (stereo unspecified) | 6.973 | 1.467
COCCN1CCc2cc(C(=O)NC(C)C)c(NCC(C)C)nc2CC1 | 3.739 | -4.673
CCn1ccnc1CN1CCN(c2cc(C)nc(C3CCCN3)c2)CC1 (stereo unspecified) | -0.6972 | -6.358
Cc1nnsc1C(=O)NCCn1ccc(-c2ccncc2)n1 | 1.1 | 6.993
Cc1cc(CN2CCN(c3nn4cc(C)nc4s3)CC2)on1 | 5.226 | -3.801
CN(C)[C@H]1CN(C(=O)c2ccc3sc4c(c3c2)CCNC4=O)C[C@@H]1O | -0.7722 | -2.101
CCC1CN(Cc2cccc(C(=O)N(C)C)c2)CCN1CCOC (stereo unspecified) | 2.287 | -3.278
COCCn1c(-c2cccc(OC)c2)cnc1NC(=O)NCCC(C)C | 5.097 | 0.2045
CS(=O)(=O)N1CCCC1Cn1cccn1 (stereo unspecified) | -1.489 | 6.902
CN(CC(=O)Nc1cnn(-c2ccccc2S(C)(=O)=O)c1)C1CC1 | 0.343 | 3.67
CCOc1ccccc1C(=O)NCCC(O)c1ccoc1 (stereo unspecified) | 5.966 | -1.112
Cc1nc(-c2ccsc2)ccc1C(=O)NCCN1CCOCC1 | 8.234 | -2.358
NCCO[C@H]1C[C@@H](O)C12CCN(Cc1c(F)cccc1F)CC2 | 1.494 | 1.49
CC(NC(=O)NCCCn1cncn1)c1ccncc1 (stereo unspecified) | 1.746 | 1.548
CC(C)C[C@H](N)COc1cccc(F)c1Oc1cccc(Cl)c1 | -0.7218 | -7.118
Cc1ccoc1C(=O)N1CC(C(=O)N2CCOCC2)C2(CCOCC2)C1 (stereo unspecified) | 0.9237 | 2.948
Cc1nccn1-c1ccc(C(C)NCc2cc[nH]n2)cc1 (stereo unspecified) | 8.541 | -5.374
Cc1ncccc1NC(=O)[C@@H]1CCO[C@@H]2CCN(c3ccncn3)C[C@H]21 | 3.68 | -
CC(C)S(=O)(=O)N1C[C@H]2OC(=O)N(CCc3cccc(Cl)c3)[C@H]2C1 | 2.224 | -2.829
CN(C)C(=O)c1n[nH]c2c1CCN(Cc1nccs1)C2 | -0.123 | -7.052
CCOC(=O)c1s/c(=N\C(=O)COc2cnc(C)cc2O)[nH]c1C | 3.257 | -2.169
CS(=O)(=O)c1cccc(C(N)c2ccccc2)c1 (stereo unspecified) | -0.9561 | -3.374
CC(=O)NCCNC(=O)c1cc(COc2ccccc2)[nH]n1 | 4.475 | -0.9524
Cc1cnn(CCNCC(O)c2ccc(C(F)(F)F)cc2)c1 (stereo unspecified) | 3.575 | -2.58
CN(Cc1cccnc1)[C@@H]1CN(C(=O)c2ccno2)[C@@H]2CCCO[C@H]12 | 3.711 | -
CC(C)c1ncc2c(n1)CN(Cc1cccc3c1OCCO3)CC2 | 6.077 | -2.275
CCN(C)C[C@H]1CC[C@@H](Cc2ccc3c(cnn3C)c2)O1 | -2.454 | 1.737
Cn1cccc1C(=O)N1CC[C@H]2[C@@H]1CCC(=O)N2c1ccccc1 | -0.8533 | 4.863
c1cnc(NC[C@H]2OC[C@@H]3CCN(Cc4cccnc4)C[C@@H]32)nc1 | 0.07076 | -3.989
O=C(NCc1ccnc(C2CCCOC2)n1)c1cccs1 (stereo unspecified) | -0.6368 | 18.6